{
  "source": "the supplement of paper PMC12889115",
  "test_system": "Salmonella enterica serovar Typhimurium SL1344",
  "assay": "bacterial growth OD600 after 18 h with compound and polymyxin B; higher = more bacterial growth (less inhibition)",
  "conditions": "50 µM, Mueller-Hinton broth",
  "note": "Some of the results follow. These are raw signals, not scaled to a control.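 In the initial screen, polymyxin B was used at a concentration that permeabilizes Salmonella's outer membrane but not its inner membrane. Maximum growth was set by DMSO wells with or without polymyxin B. Since plates varied, data were ranked per plate, and compounds giving the lowest OD600 advanced as hits.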",
  "data": [
    {"smiles": "COc1cccc(NC(=O)CCC2CCN(C(=O)[C@H]3C[C@@H]4C=C[C@H]3C4)CC2)c1", "values": [
      {"measurement": "bacterial growth OD600", "setting": "polymyxin B 1 µg/mL", "value": 1.15}
    ]},
    {"smiles": "COc1ccc(OC2CCN(C3CCCC3)CC2)c(C(=O)NC(C)c2ccncn2)c1", "note": "(stereo unspecified)", "values": [
      {"measurement": "bacterial growth OD600", "setting": "polymyxin B 1 µg/mL", "value": 0.892}
    ]},
    {"smiles": "O=C(CCC1CCCN(C(=O)c2cc3c(nc2Cl)CCC3)C1)NC1CC1", "note": "(stereo unspecified)", "values": [
      {"measurement": "bacterial growth OD600", "setting": "polymyxin B 1 µg/mL", "value": 1.02}
    ]},
    {"smiles": "CN(CCc1ccccn1)c1ncccc1CNC(=O)c1ccccn1", "values": [
      {"measurement": "bacterial growth OD600", "setting": "polymyxin B 1 µg/mL", "value": 0.939}
    ]},
    {"smiles": "COC(CNc1nc2nonc2nc1NCc1cccs1)c1cccs1", "note": "(stereo unspecified)", "values": [
      {"measurement": "bacterial growth OD600", "setting": "polymyxin B 1 µg/mL", "value": 0.944}
    ]},
    {"smiles": "CCN1CCN(C2(C(=O)NCc3csc(C)n3)Cc3ccccc3C2)CC1", "values": [
      {"measurement": "bacterial growth OD600", "setting": "polymyxin B 0.75 µg/mL", "value": 0.836}
    ]},
    {"smiles": "CCOC(=O)N1CCN(C(=O)C2CCC(=O)N(CCc3ccccn3)C2)CC1", "note": "(stereo unspecified)", "values": [
      {"measurement": "bacterial growth OD600", "setting": "polymyxin B 1 µg/mL", "value": 0.701}
    ]},
    {"smiles": "Cc1ncc2c(c1CNC(=O)c1ccc3c(c1)OCO3)CCN(C(=O)c1ccc(N3CCCC3)cc1)C2", "values": [
      {"measurement": "bacterial growth OD600", "setting": "polymyxin B 0.75 µg/mL", "value": 0.913}
    ]},
    {"smiles": "c1ccc(COC2CCN(c3nc4nonc4nc3N3CCSCC3)CC2)nc1", "values": [
      {"measurement": "bacterial growth OD600", "setting": "polymyxin B 1 µg/mL", "value": 0.825}
    ]},
    {"smiles": "CC(=O)NCCNC(=O)c1ccc(OC2CCN(S(C)(=O)=O)CC2)c(Cl)c1", "values": [
      {"measurement": "bacterial growth OD600", "setting": "polymyxin B 1 µg/mL", "value": 1.13}
    ]},
    {"smiles": "CSc1ccc(NC(=O)NCc2cccnc2N(C)C)cc1", "values": [
      {"measurement": "bacterial growth OD600", "setting": "polymyxin B 1 µg/mL", "value": 0.907}
    ]},
    {"smiles": "COc1ccccc1CN1CC(C(=O)NCc2c(F)ccc(C)c2F)CCC1=O", "note": "(stereo unspecified)", "values": [
      {"measurement": "bacterial growth OD600", "setting": "polymyxin B 1 µg/mL", "value": 0.79}
    ]},
    {"smiles": "COCc1ccc(CN(C)CC2CCCN(CCc3ccc(Cl)cc3)C2)o1", "note": "(stereo unspecified)", "values": [
      {"measurement": "bacterial growth OD600", "setting": "polymyxin B 1 µg/mL", "value": 0.756}
    ]},
    {"smiles": "O=C(c1coc(COc2ccccc2)n1)N1CCCC1c1nccs1", "note": "(stereo unspecified)", "values": [
      {"measurement": "bacterial growth OD600", "setting": "polymyxin B 1 µg/mL", "value": 0.937}
    ]},
    {"smiles": "COc1cc(CN2CCN(Cc3ccc(F)c(OC)c3)CC2CCO)cc(OC)c1", "note": "(stereo unspecified)", "values": [
      {"measurement": "bacterial growth OD600", "setting": "polymyxin B 1 µg/mL", "value": 0.902}
    ]},
    {"smiles": "COCC(=O)Nc1cc(C(=O)N(C)Cc2ccco2)cc2ncn(CCc3ccccc3)c12", "values": [
      {"measurement": "bacterial growth OD600", "setting": "polymyxin B 0.75 µg/mL", "value": 0.771}
    ]},
    {"smiles": "C[C@@H]1CN(C2(C(=O)NCCCO)Cc3ccccc3C2)C[C@H](C)O1", "values": [
      {"measurement": "bacterial growth OD600", "setting": "polymyxin B 0.75 µg/mL", "value": 0.805}
    ]},
    {"smiles": "Cc1ncsc1C(=O)N1CCCC(CCc2cccc(F)c2)C1", "note": "(stereo unspecified)", "values": [
      {"measurement": "bacterial growth OD600", "setting": "polymyxin B 0.75 µg/mL", "value": 0.541}
    ]},
    {"smiles": "COc1ccccc1OC1CCN(Cc2c[nH]nc2-c2ccc(C)c(C)c2)CC1", "values": [
      {"measurement": "bacterial growth OD600", "setting": "polymyxin B 1 µg/mL", "value": 0.763}
    ]},
    {"smiles": "COC(=O)[C@@H](NC(=O)c1ccccc1OC1CCN(S(C)(=O)=O)CC1)C(C)C", "values": [
      {"measurement": "bacterial growth OD600", "setting": "polymyxin B 1 µg/mL", "value": 1.03}
    ]},
    {"smiles": "COc1ccc(CC2(CCC(=O)N(C)[C@@H]3CS(=O)(=O)C[C@H]3O)CCC(=O)N2)c2ccccc12", "note": "(stereo partly specified)", "values": [
      {"measurement": "bacterial growth OD600", "setting": "polymyxin B 0.75 µg/mL", "value": 1.01}
    ]}
  ]
}
